# Screening data, single-dose tests

The chains behind the UniProt entries cited, without tags or fusion partners. Residues count along the entry.
UniProt A4I591, 1-473: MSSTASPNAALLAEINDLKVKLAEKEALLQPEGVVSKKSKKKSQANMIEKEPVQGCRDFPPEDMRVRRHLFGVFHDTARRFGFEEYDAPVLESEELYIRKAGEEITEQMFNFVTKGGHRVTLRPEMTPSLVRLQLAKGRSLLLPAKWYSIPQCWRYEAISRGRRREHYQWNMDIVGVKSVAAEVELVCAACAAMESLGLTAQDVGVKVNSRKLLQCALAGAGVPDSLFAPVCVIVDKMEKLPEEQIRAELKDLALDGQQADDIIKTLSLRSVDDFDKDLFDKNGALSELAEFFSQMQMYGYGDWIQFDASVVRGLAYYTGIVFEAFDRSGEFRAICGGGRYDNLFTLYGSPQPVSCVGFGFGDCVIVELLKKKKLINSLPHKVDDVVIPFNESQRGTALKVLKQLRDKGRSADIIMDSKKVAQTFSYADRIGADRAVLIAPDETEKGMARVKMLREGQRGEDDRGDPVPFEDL
UniProt P9WPC5, whole entry: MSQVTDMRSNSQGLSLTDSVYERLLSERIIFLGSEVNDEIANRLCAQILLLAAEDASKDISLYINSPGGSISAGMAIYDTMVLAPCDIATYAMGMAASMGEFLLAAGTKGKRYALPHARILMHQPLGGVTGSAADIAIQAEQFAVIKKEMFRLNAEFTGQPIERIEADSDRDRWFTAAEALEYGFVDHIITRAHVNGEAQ
UniProt P9WPC3, whole entry partner: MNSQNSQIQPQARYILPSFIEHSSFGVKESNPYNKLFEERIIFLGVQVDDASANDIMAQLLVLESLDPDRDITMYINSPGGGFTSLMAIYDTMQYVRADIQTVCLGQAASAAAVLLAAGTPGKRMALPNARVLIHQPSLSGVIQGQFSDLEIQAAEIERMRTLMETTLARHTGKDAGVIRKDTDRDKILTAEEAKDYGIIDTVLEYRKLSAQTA
UniProt Q4DA54, 1-478: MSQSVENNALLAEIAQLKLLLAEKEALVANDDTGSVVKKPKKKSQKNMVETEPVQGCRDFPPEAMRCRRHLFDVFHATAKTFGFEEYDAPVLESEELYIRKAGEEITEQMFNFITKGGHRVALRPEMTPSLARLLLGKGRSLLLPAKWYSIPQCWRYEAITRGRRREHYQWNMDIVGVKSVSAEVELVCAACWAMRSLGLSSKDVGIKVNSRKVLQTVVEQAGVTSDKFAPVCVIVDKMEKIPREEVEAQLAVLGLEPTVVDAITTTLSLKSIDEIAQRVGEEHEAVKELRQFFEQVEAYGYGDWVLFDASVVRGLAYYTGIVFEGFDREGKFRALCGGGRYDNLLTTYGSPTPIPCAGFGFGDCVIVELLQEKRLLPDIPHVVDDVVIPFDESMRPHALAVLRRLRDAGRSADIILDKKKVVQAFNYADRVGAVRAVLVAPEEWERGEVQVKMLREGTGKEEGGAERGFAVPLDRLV

Source: ChEMBL document CHEMBL3988442, “University of Dundee, Small-Polar-MMV Screening Library” (2021).

Results are given as percent effect. How 0% and 100% were set is not recorded. Most values in the screen are low, and negative values occur. The compounds are a random part of those screened.

Toxoplasma: 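Assay of Toxoplasma gondii numbers, read through their beta-galactosidase reporter with a colour substrate. Concentration: 10 µM. The record gives no direction; the compounds picked for IC50 retests had high values, so higher reads as fewer parasites. About 67,000 compounds were tested under these conditions; 0.38% (about 260) showed 50% or more at least once.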
T. brucei: 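Whole-parasite assay of Trypanosoma brucei over 72 hours; the read-out is not stated. Tested at 30 µM. Direction is inferred from retests: higher values go with stronger inhibition. Values scatter widely below zero; nearly all retest evidence comes from the higher of the two concentrations used. About 64,000 compounds were tested under these conditions; 1.5% (about 940) showed 50% or more at least once.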
LiHisRS: 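Enzyme assay of histidyl-tRNA synthetase; the read-out is not stated. Target: Histidine-tRNA ligase, Leishmania infantum (UniProt A4I591). Compounds at 30 µM. Higher reads as stronger inhibition (inferred: compounds with an IC50 in retests scored well above the rest). The assay is labelled LdHisRS but filed under L. infantum. Size under these conditions: about 69,000 compounds, about 410 of them at 50% or above in at least one test.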
ClpP1P2: 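ClpP1P2, Mycobacterium tuberculosis (UniProt P9WPC5 and UniProt P9WPC3). Protease assay of ClpP1P2, read by the AMC dye that it sets free. Concentration: 50 µM. Higher reads as stronger inhibition, judged from the few compounds that gave an IC50. Most other retested compounds had strongly negative values. Size under these conditions: about 69,000 compounds, about 10 of them at 50% or above in at least one test.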
TcHisRS: 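Histidine-tRNA ligase, Trypanosoma cruzi CL Brener (UniProt Q4DA54). Enzyme assay of histidyl-tRNA synthetase; the read-out is not stated. Compounds at 30 µM. The record gives no direction; compounds that gave an IC50 in retests scored well above the rest, so higher reads as stronger inhibition. Size under these conditions: about 69,000 compounds, about 31 of them at 50% or above in at least one test.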

SMILES: O=C(c1cc2c(s1)CCOC2)N1CCCCC1Cn1cccn1 (stereo unspecified)
Toxoplasma: 9.382
T. brucei: -19.88
LiHisRS: 2.679
ClpP1P2: -5.719
TcHisRS: 2.89

SMILES: O=C(CN1CCN(CC2CCOc3ccccc3C2)CC1)N1CCCC1 (stereo unspecified)
Toxoplasma: 3.195
T. brucei: -34.37
LiHisRS: 17.81
ClpP1P2: -2.226
TcHisRS: 4.95

SMILES: N#Cc1ccccc1C(=O)N1C[C@@H](CN2CCCCC2)[C@@H](CO)C1
Toxoplasma: 4.159
T. brucei: -42.24
LiHisRS: 26.03
ClpP1P2: -4.906
TcHisRS: 5.941

SMILES: O=S(=O)(NCC1CCN(c2cnccn2)CC1)C1CC1
Toxoplasma: -15.12
T. brucei: 3.504
LiHisRS: 10.96
ClpP1P2: 2.891
TcHisRS: 7

SMILES: CO[C@H]1CCN(Cc2ccccn2)[C@@H]2CN(Cc3ccco3)C[C@H]12
LiHisRS: 21.36
ClpP1P2: -3.159
TcHisRS: -1.639

SMILES: O=C([C@H]1C[C@H]2OCC[C@H]2N(Cc2ccoc2)C1)N1CCCCO1
LiHisRS: 20
ClpP1P2: -30.91
TcHisRS: 3.922

SMILES: CS(=O)(=O)N1CCOCC2(CCN(c3ccccn3)C2)C1.O=C(O)C(F)(F)F (stereo unspecified)
Toxoplasma: 93.48
T. brucei: -2.865

SMILES: CCCn1nnc2c(sc3nc(N4CCOCC4)c4c(c32)CCC4)c1=O
Toxoplasma: -19.54
T. brucei: -37.11
LiHisRS: 9.89
ClpP1P2: -4.449
TcHisRS: -5.941

SMILES: CCc1ccc(CN2CCc3ncnc(-c4cccnc4)c3CC2)o1
LiHisRS: 13.89
ClpP1P2: -18.68
TcHisRS: 0.9346

SMILES: Cc1cn2c(n1)CCC(NC(=O)CCOc1cccc(F)c1)C2 (stereo unspecified)
Toxoplasma: 5
T. brucei: 18.01
LiHisRS: 9.821
ClpP1P2: 3.803
TcHisRS: 8.333

SMILES: CC(C)n1cnc2ccc(NC(=O)CCCn3cccn3)cc2c1=O
Toxoplasma: -9.145
T. brucei: -27.5
LiHisRS: 13.04
ClpP1P2: 10.98
TcHisRS: 7

SMILES: COc1cccc(N2CCN(Cc3nccc(OC)c3OC)CC2=O)c1
Toxoplasma: 9.107
T. brucei: 0.171
LiHisRS: 9.836
ClpP1P2: -14.35
TcHisRS: 12

SMILES: CN(Cc1cccnc1)Cc1cn2c(n1)CN(C1CCOC1)CC2 (stereo unspecified)
LiHisRS: 5.556
ClpP1P2: -8.421
TcHisRS: 4.673

SMILES: Cc1oc(-c2ccsc2)nc1CN1CC[C@@H]2CCCC[C@H]2C1
LiHisRS: 4.301
ClpP1P2: -9.109
TcHisRS: 6.806

SMILES: O=C(CC1CCN(c2cccnn2)CC1)Nc1cccnc1
Toxoplasma: -1.953
T. brucei: -5.799
LiHisRS: 8.571
ClpP1P2: -17.09
TcHisRS: 4.981

SMILES: Cn1cc(N2CCCC(NCc3cccc4c3OCCCO4)C2)cn1 (stereo unspecified)
Toxoplasma: 13.96
T. brucei: -20.87
LiHisRS: 38.1
ClpP1P2: 11.4
TcHisRS: -0.7519

SMILES: CNC(=O)[C@@]12CCO[C@@H]1CCN(S(=O)(=O)c1ccccc1)C2
LiHisRS: 15
ClpP1P2: 10.31
TcHisRS: 3.061

SMILES: CN(CCCc1cc(-c2cccc(F)c2)n[nH]1)C(=O)CCn1cncn1
Toxoplasma: -11.23
T. brucei: -15.77
LiHisRS: 11.11
ClpP1P2: 7.82
TcHisRS: 10.97

SMILES: COc1ccc(Cl)cc1NCc1nc2[nH]c(C)c(C)c(=O)n2n1
Toxoplasma: 24.53
T. brucei: 4.522
LiHisRS: 18.48
ClpP1P2: -2.696
TcHisRS: 7.921

SMILES: Cc1nc(N2CCCC2)nc2c1CN(C(=O)NC(C)C)CC2
Toxoplasma: -5.997
T. brucei: -63.19
LiHisRS: 19.27
ClpP1P2: -5.75
TcHisRS: -0.4808

SMILES: CC(C)CN1C[C@@H]2C(=O)N(C)C3(CCN(C(=O)C(C)C)CC3)[C@@H]2C1
LiHisRS: 19.42
ClpP1P2: 3.599
TcHisRS: 12.62

SMILES: Cc1ccc(CNCc2cccc3cn[nH]c23)c(OC2CCOC2)c1 (stereo unspecified)
Toxoplasma: 5.513
T. brucei: -32.61
LiHisRS: 6.897
ClpP1P2: -15.07
TcHisRS: 0.5236

SMILES: CS(=O)(=O)N1CCC(C(=O)N2CCC3(CC2)OCCCO3)CC1
Toxoplasma: -4.324
T. brucei: 10.34
LiHisRS: 20.39
ClpP1P2: 2.63
TcHisRS: 1.087

SMILES: CCS(=O)(=O)N1C[C@@H]2CN(Cc3cnn(C)c3)CCO[C@@H]2C1
LiHisRS: 9.735
ClpP1P2: -1.296
TcHisRS: 8.602

SMILES: CC1CCCCN1Cc1nc(Cc2ccccc2)no1 (stereo unspecified)
Toxoplasma: 2.086
T. brucei: -8.939
LiHisRS: 13.16
ClpP1P2: 4.877
TcHisRS: 12.07

SMILES: CC(C)OCCS(=O)(=O)N1CCN(Cc2ccco2)CC1
Toxoplasma: 1.169
T. brucei: -7.697
LiHisRS: 13.95
ClpP1P2: -6.544
TcHisRS: 7.143

The first 3 entries again:

SMILES,Toxoplasma,T. brucei,LiHisRS,ClpP1P2,TcHisRS
O=C(c1cc2c(s1)CCOC2)N1CCCCC1Cn1cccn1 (stereo unspecified),9.382,-19.88,2.679,-5.719,2.89
O=C(CN1CCN(CC2CCOc3ccccc3C2)CC1)N1CCCC1 (stereo unspecified),3.195,-34.37,17.81,-2.226,4.95
N#Cc1ccccc1C(=O)N1C[C@@H](CN2CCCCC2)[C@@H](CO)C1,4.159,-42.24,26.03,-4.906,5.941